Here are results for 29 compounds from the supplement of paper PMC12889115.

The subject of this assay is Salmonella enterica serovar Typhimurium SL1344. The assay can be described thus: bacterial growth OD600 after 18 h with compound and polymyxin B; higher = more bacterial growth (less inhibition). Particulars: 50 µM, Mueller-Hinton broth.

Each structure is given as a SMILES string. The list shows a part of the results. Values are raw readings; no control value is given beside them.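 In the initial screen, polymyxin B was used at a concentration that permeabilizes Salmonella's outer membrane but not its inner membrane. Maximum growth was set by DMSO wells with or without polymyxin B. Since plates varied, data were ranked per plate, and compounds giving the lowest OD600 advanced as hits.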

Take `Cc1cc(C)n(CCC(=O)N2CCOc3c(cc(-c4csc5ccccc45)cc3OCCc3ccccn3)C2)n1`: the “bacterial growth OD600” value (polymyxin B 0.75 µg/mL) came to 0.353.

For the compound `Cc1cc(C(=O)N2CCOc3ccc(CN4CCC(OCc5ccccc5)CC4)cc3C2)nc(C)n1`, the “bacterial growth OD600” value (polymyxin B 0.75 µg/mL) was 0.936.

`CCCc1cc(C(=O)N(CCOC)CC2CCN(Cc3ccccc3OC)CC2)n(C)n1`: the “bacterial growth OD600” value (polymyxin B 1 µg/mL) worked out at 0.815.

Consider `CCOC(=O)N1CCN(C(=O)c2cc(NC(=O)C3CCCCC3)cc3ncn(CCOC)c23)CC1`, for which the “bacterial growth OD600” value (polymyxin B 0.75 µg/mL) was determined as 0.939.

In the case of `Cc1cc(C(=O)N2CCC3(CCCN(Cc4ccc(F)cc4)C3=O)C2)c(C)o1` (centres undefined), the “bacterial growth OD600” value (polymyxin B 1 µg/mL) came out at 0.784.

Turning to `CC(=O)c1ccc(S(=O)(=O)NCc2cccnc2N(C)C)cc1`, the “bacterial growth OD600” value (polymyxin B 1 µg/mL) amounted to 0.814.

For the compound `CCOC(=O)N1CCC(NC(=O)c2cc(NC(=O)CC)cc3nc(Cc4ccccc4)n(C)c23)CC1`, the “bacterial growth OD600” value (polymyxin B 0.75 µg/mL) was found to be 0.879.

Turning to `CCn1cc(CNC(=O)c2ccc(OC3CCN(C)CC3)c(OC)c2)cn1`, the “bacterial growth OD600” value (polymyxin B 1 µg/mL) came out at 0.998.

With `CCOc1ccc(CN2CCN(Cc3cccc(-n4cccn4)c3)CC2CCO)cc1` (centres undefined), for the setting “polymyxin B 1 µg/mL”, the “bacterial growth OD600” value amounted to 1.16.

As to `O=C(c1ccccn1)N(C1CC1)C(Cc1ccccc1)C1CCN(Cc2cc(Cl)ccc2O)CC1` (centres undefined), the “bacterial growth OD600” value (polymyxin B 0.75 µg/mL) worked out at 0.016.

Regarding `COc1cccc(NC(=O)CCC2CCN(C(=O)C(OC)c3ccccc3)CC2)c1` (centres undefined), for the setting “polymyxin B 1 µg/mL”, the “bacterial growth OD600” value worked out at 0.876.

In the case of `O=C(CN1CCCCC1)N(CC1CCN(C2Cc3ccccc3C2)CC1)CC1CCCO1` (centres undefined), under “polymyxin B 1 µg/mL”, the “bacterial growth OD600” value was 1.27.

`COc1ccc(F)c(CN2CCC(Oc3ccc(C(=O)N4CCCC4)cc3)CC2)c1`: the “bacterial growth OD600” value (polymyxin B 1 µg/mL) is 1.22.

For the compound `O=C(c1[nH]nc2c1CCCC2)N1CCC(n2c(CC3CCCC3)nc3cccnc32)CC1`, the “bacterial growth OD600” value (polymyxin B 0.75 µg/mL) worked out at 0.823.

With `COc1cccc(N2CCN(C(=O)CCC3(Cc4ccc(Cl)cc4)CCC(=O)N3)CC2)c1` (centres undefined), the “bacterial growth OD600” value (polymyxin B 0.75 µg/mL) amounted to 0.839.

In the case of `COc1ccc(F)c(CC2(CCC(=O)N3CCCC3c3ccc(F)cc3)CCC(=O)N2)c1` (centres undefined), the “bacterial growth OD600” value (polymyxin B 0.75 µg/mL) was determined as 0.889.

With `O=C(C1CCCC1)N1CCC(C2(c3ccccn3)NC(=O)N(CCc3cccs3)C2=O)CC1` (centres undefined), the “bacterial growth OD600” value (polymyxin B 0.75 µg/mL) was determined as 0.811.

On to `Cc1ccc(Oc2ncccc2CNC(=O)NC2CCCCC2)cn1`, for which, under “polymyxin B 1 µg/mL”, the “bacterial growth OD600” value amounted to 1.09.

Turning to `CC(c1ccon1)N(C)c1ccc(-c2nc(-c3ccccc3F)no2)cn1` (centres undefined), the “bacterial growth OD600” value (polymyxin B 1 µg/mL) stood at 0.795.

For `COCCN1C(=O)CC(CC(=O)NCc2ncccc2C)(c2ccccc2OC)C1=O` (centres undefined), for the setting “polymyxin B 0.75 µg/mL”, the “bacterial growth OD600” value amounted to 0.787.

As for `COC(=O)c1c(S(=O)(=O)Nc2ccc3c(c2)CCC3)sc2c1CCN(C(=O)CC1CC1)C2`, the “bacterial growth OD600” value (polymyxin B 0.75 µg/mL) was 0.004.

As for `CC(=O)c1ccc(N2CCN(C(=O)CC3(c4ccccc4Cl)CC(=O)N(C)C3=O)CC2)cc1` (centres undefined), the “bacterial growth OD600” value (polymyxin B 0.75 µg/mL) amounted to 0.872.

For `COc1ccc(NC(=O)NC2CC(=O)N(Cc3cccc(F)c3)C2)cc1` (centres undefined), the “bacterial growth OD600” value (polymyxin B 1 µg/mL) was determined as 0.92.

In the case of `CN(Cc1ccno1)CC1(O)CCCN(Cc2ccc(F)c(F)c2)C1=O` (centres undefined), under “polymyxin B 1 µg/mL”, the “bacterial growth OD600” value stood at 0.926.

`CCCN1CCN(C(=O)c2ccc(OC3CCN(S(=O)(=O)N(C)C)CC3)cc2)CC1`: the “bacterial growth OD600” value (polymyxin B 1 µg/mL) turned out to be 0.998.

On to `COc1ccc(CCN2CC(NC(=O)c3cccc(C)c3)CC2=O)cc1` (centres undefined), for which the “bacterial growth OD600” value (polymyxin B 1 µg/mL) worked out at 0.425.

In the case of `COCCCN1C(=O)CC(CC(=O)N2CCC(OCc3ccccc3)CC2)(c2ccccc2)C1=O` (centres undefined), the “bacterial growth OD600” value (polymyxin B 0.75 µg/mL) stood at 0.611.

Take `Cc1cnc(SCCN2CCOCC2)nc1C1CCCN(C(=O)/C=C/c2cccnc2)C1` (centres undefined): the “bacterial growth OD600” value (polymyxin B 0.75 µg/mL) turned out to be 0.828.

Regarding `O=C(CCCN1CCCCC1=O)NC1CCCN(CC2CCCCC2)C1` (centres undefined), the “bacterial growth OD600” value (polymyxin B 0.75 µg/mL) is 0.841.
